{"sequences": {"note": "By UniProt entry, the sequences of proteins in these tests, tags left out. Where a name states a change or a piece, a line headed by the entry shows the natural chain unless it says otherwise.", "UniProt Q8NDA8": "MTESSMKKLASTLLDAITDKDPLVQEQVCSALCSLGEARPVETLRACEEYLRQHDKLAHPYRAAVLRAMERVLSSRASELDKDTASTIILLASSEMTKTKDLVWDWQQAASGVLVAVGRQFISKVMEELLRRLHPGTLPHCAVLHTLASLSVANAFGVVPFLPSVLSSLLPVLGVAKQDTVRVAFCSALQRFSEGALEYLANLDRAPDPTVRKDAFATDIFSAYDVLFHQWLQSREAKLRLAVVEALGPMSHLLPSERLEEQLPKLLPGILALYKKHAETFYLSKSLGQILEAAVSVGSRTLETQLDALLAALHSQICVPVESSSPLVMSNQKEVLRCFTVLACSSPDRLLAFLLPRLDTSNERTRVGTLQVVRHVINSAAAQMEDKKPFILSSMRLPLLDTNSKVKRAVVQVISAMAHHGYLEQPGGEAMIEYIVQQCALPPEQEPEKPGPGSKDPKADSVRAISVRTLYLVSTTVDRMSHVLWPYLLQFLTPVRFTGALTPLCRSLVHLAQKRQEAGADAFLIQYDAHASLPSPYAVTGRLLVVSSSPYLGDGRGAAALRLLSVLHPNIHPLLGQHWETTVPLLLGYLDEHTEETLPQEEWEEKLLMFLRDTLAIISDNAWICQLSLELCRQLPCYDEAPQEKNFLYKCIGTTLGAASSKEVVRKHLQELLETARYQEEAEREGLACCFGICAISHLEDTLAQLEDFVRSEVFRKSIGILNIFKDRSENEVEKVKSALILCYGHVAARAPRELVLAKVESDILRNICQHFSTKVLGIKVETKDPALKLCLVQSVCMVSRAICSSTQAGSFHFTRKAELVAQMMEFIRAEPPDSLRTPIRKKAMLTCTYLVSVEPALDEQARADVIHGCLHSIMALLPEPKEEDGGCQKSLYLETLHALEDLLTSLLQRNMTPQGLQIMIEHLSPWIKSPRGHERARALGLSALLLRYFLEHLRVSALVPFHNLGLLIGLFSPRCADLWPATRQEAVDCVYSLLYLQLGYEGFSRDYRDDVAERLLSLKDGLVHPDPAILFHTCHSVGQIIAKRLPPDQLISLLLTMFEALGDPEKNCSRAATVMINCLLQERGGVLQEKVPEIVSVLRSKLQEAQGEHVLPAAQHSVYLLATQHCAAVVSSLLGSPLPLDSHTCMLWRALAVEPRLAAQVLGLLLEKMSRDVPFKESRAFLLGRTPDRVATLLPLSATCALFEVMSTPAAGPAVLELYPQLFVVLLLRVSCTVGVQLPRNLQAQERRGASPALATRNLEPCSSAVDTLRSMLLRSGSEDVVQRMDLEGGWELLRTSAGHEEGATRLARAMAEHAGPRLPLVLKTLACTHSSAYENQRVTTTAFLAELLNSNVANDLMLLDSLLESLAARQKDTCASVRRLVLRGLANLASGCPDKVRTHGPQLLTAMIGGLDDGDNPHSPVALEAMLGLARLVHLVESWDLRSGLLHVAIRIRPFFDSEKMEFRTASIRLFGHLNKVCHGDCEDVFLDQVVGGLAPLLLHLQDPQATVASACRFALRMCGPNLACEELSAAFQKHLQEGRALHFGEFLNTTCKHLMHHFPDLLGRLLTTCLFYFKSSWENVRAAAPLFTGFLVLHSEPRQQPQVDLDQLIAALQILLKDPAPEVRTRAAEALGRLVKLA", "UniProt Q8N3U4": "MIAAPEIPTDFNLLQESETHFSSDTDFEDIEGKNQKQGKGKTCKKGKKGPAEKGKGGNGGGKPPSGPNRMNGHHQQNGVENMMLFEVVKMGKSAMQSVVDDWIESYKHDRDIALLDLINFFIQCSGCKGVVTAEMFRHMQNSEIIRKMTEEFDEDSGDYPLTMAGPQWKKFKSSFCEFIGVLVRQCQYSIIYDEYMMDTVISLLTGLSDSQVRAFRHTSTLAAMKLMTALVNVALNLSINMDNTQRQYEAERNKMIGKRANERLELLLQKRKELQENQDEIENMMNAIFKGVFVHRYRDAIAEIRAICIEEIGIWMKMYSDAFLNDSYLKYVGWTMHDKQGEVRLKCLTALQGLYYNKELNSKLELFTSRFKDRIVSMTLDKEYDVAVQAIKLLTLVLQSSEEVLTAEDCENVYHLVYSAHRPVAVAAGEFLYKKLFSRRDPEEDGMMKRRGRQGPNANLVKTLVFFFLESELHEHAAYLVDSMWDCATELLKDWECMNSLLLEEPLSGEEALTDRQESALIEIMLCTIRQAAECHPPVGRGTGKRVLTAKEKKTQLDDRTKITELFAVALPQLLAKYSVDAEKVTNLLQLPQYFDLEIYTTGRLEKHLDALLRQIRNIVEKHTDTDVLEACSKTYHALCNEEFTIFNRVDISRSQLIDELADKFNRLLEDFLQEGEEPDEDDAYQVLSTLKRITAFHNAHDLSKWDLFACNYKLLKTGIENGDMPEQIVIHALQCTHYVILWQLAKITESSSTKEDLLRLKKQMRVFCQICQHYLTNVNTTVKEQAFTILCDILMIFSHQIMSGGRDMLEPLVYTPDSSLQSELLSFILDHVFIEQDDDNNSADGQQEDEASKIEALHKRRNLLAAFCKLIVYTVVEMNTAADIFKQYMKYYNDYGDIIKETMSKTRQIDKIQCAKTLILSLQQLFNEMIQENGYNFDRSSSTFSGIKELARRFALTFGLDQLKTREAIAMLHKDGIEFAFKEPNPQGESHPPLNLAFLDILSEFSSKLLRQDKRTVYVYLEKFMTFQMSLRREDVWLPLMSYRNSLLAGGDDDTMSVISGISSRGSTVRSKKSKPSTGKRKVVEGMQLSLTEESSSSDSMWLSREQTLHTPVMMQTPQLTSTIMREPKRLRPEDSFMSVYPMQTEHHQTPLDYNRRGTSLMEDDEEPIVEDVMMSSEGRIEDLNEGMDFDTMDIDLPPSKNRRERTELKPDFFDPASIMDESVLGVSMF", "UniProt Q8NBJ9": "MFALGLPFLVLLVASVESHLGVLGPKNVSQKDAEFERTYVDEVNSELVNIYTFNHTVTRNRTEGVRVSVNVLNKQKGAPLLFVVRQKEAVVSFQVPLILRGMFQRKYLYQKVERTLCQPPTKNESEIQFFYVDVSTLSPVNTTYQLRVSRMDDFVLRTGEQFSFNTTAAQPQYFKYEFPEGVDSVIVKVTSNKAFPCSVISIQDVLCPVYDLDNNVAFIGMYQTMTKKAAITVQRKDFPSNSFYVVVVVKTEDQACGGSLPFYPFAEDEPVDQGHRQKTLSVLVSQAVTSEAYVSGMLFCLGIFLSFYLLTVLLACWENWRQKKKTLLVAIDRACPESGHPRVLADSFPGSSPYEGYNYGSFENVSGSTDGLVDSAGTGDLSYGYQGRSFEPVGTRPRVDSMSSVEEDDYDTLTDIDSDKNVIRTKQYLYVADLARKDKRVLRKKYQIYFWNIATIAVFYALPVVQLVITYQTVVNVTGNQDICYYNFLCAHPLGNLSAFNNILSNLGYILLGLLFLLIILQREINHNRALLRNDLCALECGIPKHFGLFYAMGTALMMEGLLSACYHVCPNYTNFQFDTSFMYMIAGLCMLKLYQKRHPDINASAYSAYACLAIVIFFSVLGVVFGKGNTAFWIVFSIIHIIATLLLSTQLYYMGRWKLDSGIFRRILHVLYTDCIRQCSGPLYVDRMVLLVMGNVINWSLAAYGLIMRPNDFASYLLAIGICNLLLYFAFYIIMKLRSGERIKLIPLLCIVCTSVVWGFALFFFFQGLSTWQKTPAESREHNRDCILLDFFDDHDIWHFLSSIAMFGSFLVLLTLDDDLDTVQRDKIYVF", "UniProt Q8N9V3": "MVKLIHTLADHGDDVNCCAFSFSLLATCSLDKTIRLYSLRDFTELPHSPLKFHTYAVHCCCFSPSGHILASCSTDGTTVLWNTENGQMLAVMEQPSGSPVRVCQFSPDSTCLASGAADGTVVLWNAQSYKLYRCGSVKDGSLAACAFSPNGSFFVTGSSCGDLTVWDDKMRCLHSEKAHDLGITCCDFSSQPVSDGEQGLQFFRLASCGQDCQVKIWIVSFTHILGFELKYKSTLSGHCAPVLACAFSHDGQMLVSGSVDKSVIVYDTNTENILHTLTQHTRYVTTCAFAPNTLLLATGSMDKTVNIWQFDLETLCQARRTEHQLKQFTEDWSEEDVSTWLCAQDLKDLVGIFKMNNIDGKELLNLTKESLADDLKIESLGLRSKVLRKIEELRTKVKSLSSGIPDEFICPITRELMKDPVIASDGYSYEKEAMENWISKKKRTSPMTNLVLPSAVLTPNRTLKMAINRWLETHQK", "UniProt Q8N9E0": "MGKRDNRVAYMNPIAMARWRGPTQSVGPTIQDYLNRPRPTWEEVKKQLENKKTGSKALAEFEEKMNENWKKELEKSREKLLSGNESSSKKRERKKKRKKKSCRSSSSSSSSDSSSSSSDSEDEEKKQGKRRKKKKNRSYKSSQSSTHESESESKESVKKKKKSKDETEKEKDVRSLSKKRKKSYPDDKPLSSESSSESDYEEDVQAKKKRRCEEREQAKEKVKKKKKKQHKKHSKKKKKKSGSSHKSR", "UniProt Q8N4Q1": "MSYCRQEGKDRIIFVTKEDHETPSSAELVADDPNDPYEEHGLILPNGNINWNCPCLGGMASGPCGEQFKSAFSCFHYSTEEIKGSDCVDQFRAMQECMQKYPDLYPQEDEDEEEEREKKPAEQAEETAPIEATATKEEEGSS", "UniProt Q8N841": "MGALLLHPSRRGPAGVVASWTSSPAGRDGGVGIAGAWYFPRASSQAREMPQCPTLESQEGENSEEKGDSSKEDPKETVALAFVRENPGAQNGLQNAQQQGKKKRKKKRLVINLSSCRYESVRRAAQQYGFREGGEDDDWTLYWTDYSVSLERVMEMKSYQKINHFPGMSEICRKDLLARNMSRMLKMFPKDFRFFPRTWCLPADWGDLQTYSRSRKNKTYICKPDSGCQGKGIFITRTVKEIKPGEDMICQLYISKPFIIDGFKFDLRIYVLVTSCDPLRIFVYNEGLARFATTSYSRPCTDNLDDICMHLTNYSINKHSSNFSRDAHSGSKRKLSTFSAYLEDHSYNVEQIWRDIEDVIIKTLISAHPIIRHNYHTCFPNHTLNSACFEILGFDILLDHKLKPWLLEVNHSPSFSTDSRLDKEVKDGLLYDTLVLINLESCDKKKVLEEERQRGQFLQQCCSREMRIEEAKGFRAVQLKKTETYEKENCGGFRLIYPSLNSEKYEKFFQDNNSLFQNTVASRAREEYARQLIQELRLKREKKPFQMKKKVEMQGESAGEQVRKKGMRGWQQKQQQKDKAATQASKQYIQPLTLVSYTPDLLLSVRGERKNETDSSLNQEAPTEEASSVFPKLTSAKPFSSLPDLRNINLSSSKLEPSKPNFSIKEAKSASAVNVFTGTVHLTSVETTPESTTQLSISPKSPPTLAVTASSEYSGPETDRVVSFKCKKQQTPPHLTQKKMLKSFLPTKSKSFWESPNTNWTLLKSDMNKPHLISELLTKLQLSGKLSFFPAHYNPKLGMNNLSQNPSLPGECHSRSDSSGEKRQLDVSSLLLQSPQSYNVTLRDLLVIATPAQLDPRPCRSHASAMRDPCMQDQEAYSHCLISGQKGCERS", "UniProt Q8N300": "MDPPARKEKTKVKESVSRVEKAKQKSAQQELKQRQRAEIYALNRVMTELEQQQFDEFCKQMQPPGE", "UniProt Q8N567": "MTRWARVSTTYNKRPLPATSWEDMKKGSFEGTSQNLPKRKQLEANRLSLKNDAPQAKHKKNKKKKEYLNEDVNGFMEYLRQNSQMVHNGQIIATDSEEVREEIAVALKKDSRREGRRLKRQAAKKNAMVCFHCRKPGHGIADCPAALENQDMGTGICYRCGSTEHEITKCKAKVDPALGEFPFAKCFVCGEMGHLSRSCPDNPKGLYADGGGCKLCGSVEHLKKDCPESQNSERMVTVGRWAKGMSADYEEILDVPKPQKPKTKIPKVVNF", "UniProt Q8NA75": "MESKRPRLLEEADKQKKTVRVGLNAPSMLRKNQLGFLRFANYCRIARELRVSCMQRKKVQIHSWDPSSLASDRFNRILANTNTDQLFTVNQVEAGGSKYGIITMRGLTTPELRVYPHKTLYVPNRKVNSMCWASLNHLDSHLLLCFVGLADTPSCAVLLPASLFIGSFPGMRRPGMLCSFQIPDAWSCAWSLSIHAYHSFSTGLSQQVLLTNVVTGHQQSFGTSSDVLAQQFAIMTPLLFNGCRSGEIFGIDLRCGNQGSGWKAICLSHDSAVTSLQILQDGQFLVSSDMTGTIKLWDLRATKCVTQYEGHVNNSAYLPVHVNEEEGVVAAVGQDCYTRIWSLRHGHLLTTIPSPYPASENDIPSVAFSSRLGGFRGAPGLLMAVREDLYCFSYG", "UniProt Q8NBK3": "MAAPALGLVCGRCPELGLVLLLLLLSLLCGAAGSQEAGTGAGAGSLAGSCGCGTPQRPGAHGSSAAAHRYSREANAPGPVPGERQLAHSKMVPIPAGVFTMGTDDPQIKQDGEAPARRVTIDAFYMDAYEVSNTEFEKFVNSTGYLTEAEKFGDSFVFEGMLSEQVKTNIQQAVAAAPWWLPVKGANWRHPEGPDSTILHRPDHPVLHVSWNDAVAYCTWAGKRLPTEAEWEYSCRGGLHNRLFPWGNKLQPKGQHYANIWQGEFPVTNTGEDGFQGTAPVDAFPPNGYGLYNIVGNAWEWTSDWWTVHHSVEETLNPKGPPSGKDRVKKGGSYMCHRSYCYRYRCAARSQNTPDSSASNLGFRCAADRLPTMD"}, "source": "the supplement of paper PMC12819154", "about": "“High-throughput peptide-centric local stability assay extends protein–ligand identification to membrane proteins, tissues and bacteria” (Nature Structural & Molecular Biology, 2025)", "note": "The list shows a part of the results. Most values lie at the level of the controls, where differences are scatter.", "data": [{"compound": "Cc1nc(Nc2ncc(C(=O)Nc3c(C)cccc3Cl)s2)cc(N2CCN(CCO)CC2)n1 [dasatinib]", "test": "log2 fold change of tryptic peptide abundance, ligand vs vehicle (limited proteolysis) (log2 ratio); higher = more trypsin-susceptible (destabilized)", "conditions": "ligand concentration: 5 uM; sample: K562 cleared lysate", "values": [{"target": "UniProt Q8NDA8 (peptide sequence: SLVHLAQK, peptide start residue: 507)", "log2 fold change": 0.359}, {"target": "MLKL (peptide sequence: ENEVSTLYK, peptide start residue: 211) (UniProt Q8NB16)", "log2 fold change": 0.664}, {"target": "UniProt Q8NBU5 (peptide sequence: HLFENSR, peptide start residue: 115)", "log2 fold change": 0.269}, {"target": "UniProt Q8NFT6 (peptide sequence: SFYLDLPAGK, peptide start residue: 52)", "log2 fold change": 0.0559}, {"target": "STAG2 (peptide sequence: YVGWTMHDK, peptide start residue: 331) (UniProt Q8N3U4)", "log2 fold change": -0.329}, {"target": "UniProt Q8NA31 (peptide sequence: KSLICNKK, peptide start residue: 637)", "log2 fold change": 0.67}, {"target": "ARHGAP24 (peptide sequence: QKIEYESR, peptide start residue: 658) (UniProt Q8N264)", "log2 fold change": -0.632}, {"target": "SIDT2 (peptide sequence: ACPESGHPR, peptide start residue: 334) (UniProt Q8NBJ9)", "log2 fold change": 0.184}, {"target": "ZNF485 (peptide sequence: EAPSGTHAVEDYWFETK, peptide start residue: 75) (UniProt Q8NCK3)", "log2 fold change": 0.216}, {"target": "EIF1AD (peptide sequence: AEISFVLCK, peptide start residue: 82) (UniProt Q8N9N8)", "log2 fold change": 0.14}, {"target": "UBAC2 (peptide sequence: QLMFSQFAQGR, peptide start residue: 253) (UniProt Q8NBM4)", "log2 fold change": 0.121}, {"target": "WDSUB1 (peptide sequence: EAMENWISK, peptide start residue: 432) (UniProt Q8N9V3)", "log2 fold change": -0.199}, {"target": "UniProt Q8N9E0 (peptide sequence: MNENWKK, peptide start residue: 65)", "log2 fold change": -0.113}, {"target": "CHCHD4 (peptide sequence: SYCRQEGK, peptide start residue: 2) (UniProt Q8N4Q1)", "log2 fold change": 0.316}, {"target": "UniProt Q8N6Q8 (peptide sequence: LDVNGLALK, peptide start residue: 233)", "log2 fold change": 0.346}, {"target": "UniProt Q8N841 (peptide sequence: LSFFPAHYNPK, peptide start residue: 738)", "log2 fold change": -0.0884}, {"target": "MSL3 (peptide sequence: EGSAVFAGFEGR, peptide start residue: 409) (UniProt Q8N5Y2)", "log2 fold change": -0.339}, {"target": "TDRD7 (peptide sequence: YTSGLWASALPK, peptide start residue: 352) (UniProt Q8NHU6)", "log2 fold change": -0.612}, {"target": "SVBP (peptide sequence: AEIYALNR, peptide start residue: 37) (UniProt Q8N300)", "log2 fold change": -0.00065}, {"target": "ASCC1 (peptide sequence: KIEMETK, peptide start residue: 111) (UniProt Q8N9N2)", "log2 fold change": 0.243}, {"target": "ZCCHC9 (peptide sequence: RPLPATSWEDMKK, peptide start residue: 14) (UniProt Q8N567)", "log2 fold change": 0.433}, {"target": "DCAF4L2 (peptide sequence: LLEEADKQKK, peptide start residue: 8) (UniProt Q8NA75)", "log2 fold change": 0.689}, {"target": "NUP93 (peptide sequence: CHAVHVALVLFELK, peptide start residue: 487) (UniProt Q8N1F7)", "log2 fold change": 0.174}, {"target": "SUMF1 (peptide sequence: EANAPGPVPGER, peptide start residue: 73) (UniProt Q8NBK3)", "log2 fold change": 0.0368}, {"target": "PDCD7 (peptide sequence: KGVCPPASADETFTHHLQR, peptide start residue: 336) (UniProt Q8N8D1)", "log2 fold change": -0.258}, {"target": "UniProt Q8NBJ5 (peptide sequence: ALQAQEIECR, peptide start residue: 361)", "log2 fold change": 0.35}, {"target": "DDX55 (peptide sequence: KLQSGILVCTDVMAR, peptide start residue: 316) (UniProt Q8NHQ9)", "log2 fold change": -0.233}]}]}
